# Measured values reported in PubChem BioAssay AID1471 (National Center for Advancing Translational Sciences (NCATS), 2008).
# Out of some 230,000 compounds screened, about 310 (0.13%) were called active. The inconclusive results got no clear call from the source; some entries with a clear call stand among them for comparison. Calls come from the whole dose curve; as a rule, active = well fitted activation curve with a large enough effect; inconclusive = small, poorly fitted or top-dose-only effect; inactive = no such curve, though single readings can be large or run the other way. A potency beside an inconclusive call is a rough fit, not a confirmed value. Where a structure was tested more than once in an assay, its records may differ in their call.
# Experiment: qHTS Multiplex Assay to Identify Dual Action Probes in a Cell Model of Huntington: Cytoprotection (ATP); note: nearly all actives have a fitted effect of over 45% in size;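 for cytoprotection (ATP increase): toxic huntingtin expression switched on by the ecdysone agonist tebufenozide; % of control where 0% means no effect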
# Conditions: PC12 HTT-Q103 induced, ATP luminescence, 40 h; cytoprotection (ATP increase): at 56.4 µM (top of the series) unless noted
# Procedure, shortened: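 Readout: ATPlite luminescence (ATP level). Model: stable PC12, inducible Htt exon1 Q103-GFP. Inducer: tebufenozide, 100 nM final. Compounds: dose series. No G418 in medium.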
# Potency is the fitted concentration of half-maximal effect.
Structure (SMILES),Potency,cytoprotection (ATP increase)
CC(O)CN1CC(O)=C(c2nc3ccccc3s2)C1=N (stereo not given),"inconclusive: 20 µM [activator, single point]",–
COc1cc(NC(=O)c2cc3nc(C)cc(C)n3n2)c(OC)cc1Cl,active: 14.1 µM,–
c1ncc(CC2CCNCC2)[nH]1,"inconclusive: 0.112 µM [activator, full curve, poor fit]",–
N#C/C(=C/c1ccc(N2CCCC2)c([N+](=O)[O-])c1)c1nc2ccccc2[nH]1,–,inactive: -35.6%
O=C1OC(CO)C(O)C(O)C1O (stereo not given),"inconclusive: 0.316 µM [activator, partial curve, poor fit]",–
C[C@H]1CS(=O)(=O)CCN1/N=C\c1ccc([N+](=O)[O-])o1,–,inactive: 2.01% [at 40.3 µM]
N#Cc1ccc(CO/N=C/c2ccccc2)cc1,"inconclusive: 3.16 µM [activator, partial curve]",–
Cc1ccc2c(CN3CCN(CCO)CC3)cc(=O)oc2c1C,"inconclusive: 0.0891 µM [activator, full curve, poor fit]",–
Oc1ccc(Cl)cc1CNc1ccc(Br)cn1,"inconclusive: 17.8 µM [activator, partial curve, poor fit]",–
O=Cc1cn(CC(=O)N2CCCc3ccccc32)c2ccccc12,–,inactive: 19.8% [at 10 µM]
CC1(C)N=C(SCC(=O)Nc2ccccc2)C(c2ccc(Cl)cc2)=N1,active: 17.8 µM,–
Nc1ccccc1C(=O)C[C@@H](N)C(=O)O,"inconclusive: 1.26 µM [activator, full curve, poor fit]",–
CS(=O)(=O)N1CCC2(CCN(C(c3ccccc3)c3ccccc3)CC2)CC1,"inconclusive: 39.8 µM [activator, single point]",–
O=C(O)c1ccc(N2CC3CC(C2)c2cccc(=O)n2C3)c(NC(=S)Nc2ccc(Br)cc2)c1 (stereo not given),"inconclusive: 0.562 µM [activator, full curve, poor fit]",–
Cc1c(Cl)cccc1NC(CC(=O)c1ccccc1)C(=O)OCC(=O)c1cccs1 (stereo not given),–,inactive: 12.5% [at 10 µM]
CCOC(=O)c1c(C)c(C(=O)NCCc2ccccc2)c(C)n1C,"inconclusive: 5.62 µM [activator, single point]",–
CCCCn1c(CCC(=O)O)nc2c1c(=O)[nH]c(=O)n2CCC,"inconclusive: 0.708 µM [activator, single point]",–
CC(C)CN1CC[C@@]2(CCCN(S(=O)(=O)c3ccccc3)C2)C1,"inconclusive: 1.26 µM [activator, full curve]",–
O=C(CSc1nc(-c2ccco2)cc(C(F)(F)F)n1)NCc1cccs1,"inconclusive: 0.0891 µM [activator, full curve, poor fit]",–
COCC(=O)N1CCC2(CC1)CCN(C(=O)NC(C)C)CC2,"inconclusive: 2.51 µM [activator, partial curve]",–
Cc1ccc2cc(C#N)c(NCCNC(=S)NCCCN3CCOCC3)nc2c1,"inconclusive: 3.55 µM [activator, single point]",–
Cc1nn(Cc2c(Cl)cccc2Cl)c(C)c1NC(=O)CCCn1nc([N+](=O)[O-])c(Cl)c1C,–,inactive: 24% [at 10 µM]

Structure (SMILES),Potency,cytoprotection (ATP increase)
COC(=O)[C@H](Cc1ccccc1)NC(=O)O[C@@H]1C(=O)c2cc(OC)ccc2O[C@H]1c1ccc(OC)c(Br)c1,"inconclusive: 6.31 µM [activator, full curve]",–
O=C(Nc1ccccc1OC(=O)c1ccc(Cl)cc1)c1ccc(Cl)cc1,"inconclusive: 5.62 µM [activator, partial curve]",–
CN(CC(=O)O)c1ccc(S(=O)(=O)N2CCOCC2)cc1[N+](=O)[O-],"inconclusive: 0.112 µM [activator, partial curve, poor fit]",–
OCc1ccccc1O,"inconclusive: 12.6 µM [activator, partial curve]",–
O=c1cc(CO)oc(C(Nc2ccccn2)c2ccccc2Cl)c1O (stereo not given),"inconclusive: 4.47 µM [activator, partial curve, poor fit]",–
CC(C)(C)OC(=O)NCCCCC1=CC2=CC(=O)C(C)(OC(=O)C3CCCC3)C(=O)C2=CO1 (stereo not given),"inconclusive: 5.62 µM [activator, single point]",–
COc1c(N2CCNC(C)C2)c(F)cc2c(=O)c(C(=O)O)cn(C3CC3)c12 (stereo not given),active: 3.16 µM,–
Cc1cc(C(=O)Nc2cccc(C(=O)O)c2)c(C)o1,"inconclusive: 3.16 µM [activator, partial curve, poor fit]",–
Cc1ccc(-c2csc(=S)[nH]2)cc1,"inconclusive: 12.6 µM [activator, single point]",–
CCCCCCCCCCCCCCCCCCOC[C@@H](O)COP(=O)([O-])OCC[N+](C)(C)C,"inconclusive: 0.562 µM [activator, partial curve, poor fit]",–
Cn1c(=O)c(-c2cc(F)cc(F)c2)nc2cnc(N3CCNCC3)nc21,"inconclusive: 2.24 µM [activator, single point]",–
CNCCCCc1cnc(C)c2[nH]c3ccccc3c12,active: 3.55 µM,–
COc1ccccc1N(CC(O)COc1ccccc1C)S(=O)(=O)c1ccccc1 (stereo not given),"inconclusive: 5.62 µM [activator, single point]",–
CCN(CC)S(=O)(=O)c1ccc(/C=C/C(=O)OCC(=O)N(C(C)C)C(C)C)cc1,–,inactive: 9.03% [at 10 µM]
COCCNC(=O)CSc1nc2nc(C)cc(C)n2n1,–,inactive: 1.32%
CC(=O)N(c1ccc2oc(=O)sc2c1)S(=O)(=O)c1cccs1,"inconclusive: 35.5 µM [activator, single point]",–
COCC(=O)N1CCC2(CC1)CCN(c1ccncc1)CC2,"inconclusive: 1.12 µM [activator, full curve, poor fit]",–
O=C(NC1C=CS(=O)(=O)C1)c1sc2ccccc2c1Cl (stereo not given),"inconclusive: 17.8 µM [activator, single point]",–
CC(=O)NS(=O)(=O)c1ccc(NS(=O)(=O)c2ccccc2[N+](=O)[O-])cc1,–,inactive: 17.4% [at 10 µM]
CCOC(=O)N1N=C(c2ccc(C)cc2)CC1(O)C(F)(F)F (stereo not given),–,inactive: -39.8% [at 10 µM]
COc1ccc(N2C(=O)CS(=O)C(c3ccccc3)C2=O)cc1 (stereo not given),–,inactive: -10.9%
COC(=O)[C@@]1(Cc2ccccc2)[C@H]2c3cc(C(=O)N4CCCC4)n(Cc4ccc(O)c(OC)c4)c3C[C@H]2CN1C(=O)c1ccccc1,–,inactive: 24.8%

# Record cards, as listed above. Values in the order: Potency | cytoprotection (ATP increase)
# COc1ccccc1N(CC(O)COc1ccccc1C)S(=O)(=O)c1ccccc1 (stereo not given) is entered as inconclusive: 5.62 µM [activator, single point] | –
# CC(C)(C)OC(=O)NCCCCC1=CC2=CC(=O)C(C)(OC(=O)C3CCCC3)C(=O)C2=CO1 (stereo not given) is entered as inconclusive: 5.62 µM [activator, single point] | –

# Further structures follow.

Structure (SMILES),Potency,cytoprotection (ATP increase)
CN1/C(=C\C(=O)C[n+]2ccc(C(=O)c3ccccc3)cc2)C(C)(C)c2ccccc21,–,inactive: -17.8% [at 10 µM]
C[C@@H](CC(=O)O)[C@@H](N)C(=O)O,"inconclusive: 0.316 µM [activator, partial curve]",–
Cc1ccc(-n2nc3c([n+]2[O-])CCc2c-3no[n+]2[O-])cc1,"inconclusive: 1.12 µM [activator, partial curve]",–
O=C(Nc1ccccc1)N1CCC2(CC1)CCN(C(=O)c1csnn1)CC2,"inconclusive: 0.0794 µM [activator, full curve, poor fit]",–
COc1ccc(-c2ccc(/C=C3/C(=N)N4C(C)=CSC4=NC3=O)o2)c([N+](=O)[O-])c1,"inconclusive: 0.1 µM [activator, partial curve, poor fit]",–
CC(C)C[C@@H](CC(=O)N[C@@H](CCCN)CC(=O)N[C@@H]1CCNC[C@H]1C(=O)N[C@H](CC(=O)N[C@@H](CCC(=O)O)CC(=O)O)Cc1c[nH]c2ccccc12)NC(=O)[C@@H]1CCCC[C@H]1N,"inconclusive: 31.6 µM [activator, single point]",–
O=C(CNC(=O)c1ccccc1)Nc1cccc(C(F)(F)F)c1,"inconclusive: 0.794 µM [activator, single point]",–
C/C(=N/OC(=O)c1c(-c2c(Cl)cccc2Cl)noc1C)c1cnccn1,"inconclusive: 2.82 µM [activator, full curve, poor fit]",–
CCCOc1ccccc1-c1nc2n[nH]nc2c(=O)[nH]1,"inconclusive: 0.178 µM [activator, full curve]",–
CCOC(=O)c1nnn(-c2nonc2N)c1CN(CC)CC,–,inactive: -1.97%
Cc1ccc(-c2cc(C(=O)Nc3ccc(S(=O)(=O)Nc4onc(C)c4C)cc3)c3ccccc3n2)cc1,"inconclusive: 35.5 µM [activator, single point]",–
CCC(=O)N1CCc2cc(S(=O)(=O)N(CC)c3cccc(C)c3)ccc21,"inconclusive: 3.98 µM [activator, single point]",–
N#Cc1ccc(CN2CCC3(CC2)CCN(C(=O)c2csnn2)CC3)cc1,"inconclusive: 8.91 µM [activator, partial curve, poor fit]",–
COc1ccc2[nH]cc(CCNc3ncncc3-c3cccnc3)c2c1,"inconclusive: 0.708 µM [activator, partial curve, poor fit]",–
O=C1CC(c2ccccc2)Cc2nc3ncnn3cc21 (stereo not given),–,inactive: -27.4%
COC(=O)c1sc(NC(=O)C(C)C)c(C(=O)OC)c1C,"inconclusive: 6.31 µM [activator, single point]",–
CCOC(=O)c1[nH]c2ccccc2c1NC(=O)CCN1CC(C)OC(C)C1 (stereo not given),–,inactive: -15.6%
O=C1NC(=O)C(c2ccccc2)(c2ccccc2)N1,"inconclusive: 12.6 µM [activator, partial curve]",–
Cc1ccccc1C(=O)NNC(=S)NC(=O)COc1ccccc1,"inconclusive: 1.26 µM [activator, single point]",–
COc1cccc(C(=O)Nc2ccc(F)c(F)c2F)c1,"inconclusive: 2.82 µM [activator, partial curve, poor fit]",–
O=C(O)CN=C(NS(=O)(=O)c1ccc(Cl)cc1)c1ccc(F)cc1,"inconclusive: 35.5 µM [activator, single point]",–

# Compounds from the list above with a COOH group:
Structure (SMILES),Potency,cytoprotection (ATP increase)
Nc1ccccc1C(=O)C[C@@H](N)C(=O)O,"inconclusive: 1.26 µM [activator, full curve, poor fit]",–
O=C(O)c1ccc(N2CC3CC(C2)c2cccc(=O)n2C3)c(NC(=S)Nc2ccc(Br)cc2)c1 (stereo not given),"inconclusive: 0.562 µM [activator, full curve, poor fit]",–
CCCCn1c(CCC(=O)O)nc2c1c(=O)[nH]c(=O)n2CCC,"inconclusive: 0.708 µM [activator, single point]",–
CN(CC(=O)O)c1ccc(S(=O)(=O)N2CCOCC2)cc1[N+](=O)[O-],"inconclusive: 0.112 µM [activator, partial curve, poor fit]",–
COc1c(N2CCNC(C)C2)c(F)cc2c(=O)c(C(=O)O)cn(C3CC3)c12 (stereo not given),active: 3.16 µM,–
Cc1cc(C(=O)Nc2cccc(C(=O)O)c2)c(C)o1,"inconclusive: 3.16 µM [activator, partial curve, poor fit]",–
C[C@@H](CC(=O)O)[C@@H](N)C(=O)O,"inconclusive: 0.316 µM [activator, partial curve]",–
CC(C)C[C@@H](CC(=O)N[C@@H](CCCN)CC(=O)N[C@@H]1CCNC[C@H]1C(=O)N[C@H](CC(=O)N[C@@H](CCC(=O)O)CC(=O)O)Cc1c[nH]c2ccccc12)NC(=O)[C@@H]1CCCC[C@H]1N,"inconclusive: 31.6 µM [activator, single point]",–
O=C(O)CN=C(NS(=O)(=O)c1ccc(Cl)cc1)c1ccc(F)cc1,"inconclusive: 35.5 µM [activator, single point]",–
